Values quoted from earlier work, collected in patent US20070213370A1, “5-HTP Combination Therapy” (H. Lundbeck A/S, priority 2005, published 2007).
At least one structure is not confirmed: it was looked up by name or label, or the drawing left a doubt.

Key:
rat = details: cited from earlier work
mouse = details: co-administration with L; cited from earlier work

Compound: CN(C)CCCC1(c2ccc(F)cc2)OCc2cc(C#N)ccc21 (racemic) [citalopram]
- anxiolytic response to co-treatment with L, 5-HTP (rat): slightly attenuated
- antiaggressive effect with a subeffective dose of L, 5-HTP (mouse): greatly potentiated
